Experimental data taken from the supplement of paper PMC11060735.
Several values for one entry are separate records, joined by “and”; a condition that tells them apart may be missing. Identical values can stand only once. Counter-ions that a name gives are not always drawn. ± gives the standard deviation of the averaged measurements. Over roughly 1,800 compounds, “GFP- (p16Ink4a-) cell count relative to negative-control wells” has its median near 0.99; the lowest 2% begin near 0.5. The list shows a part of the results.

System: mouse p16Ink4a+/- lung fibroblasts (INKBRITE, bleomycin-injured)
Assay: GFP- (p16Ink4a-) cell count relative to negative-control wells (fold of vehicle); higher = more p16Ink4a- cells surviving
Conditions: 1 µM; 3 days

SMILES	GFP-
CO[C@H]1C[C@@H]2CC[C@@H](C)[C@@](O)(O2)C(=O)C(=O)N2CCCC[C@H]2C(=O)O[C@H]([C@H](C)C[C@@H]2CC[C@@H](OCCO)[C@H](OC)C2)CC(=O)[C@H](C)/C=C(\C)[C@@H](O)[C@@H](OC)C(=O)[C@H](C)C[C@H](C)/C=C/C=C/C=C/1C [Everolimus]	0.743
CCCCCOC(=O)Nc1nc(=O)n([C@@H]2O[C@H](C)[C@@H](O)[C@H]2O)cc1F [Capecitabine]	1.13
Oc1ccc(OC2CCCCO2)cc1 (stereo unspecified) [Deoxyarbutin]	1.06
COc1cccc(-c2cc(=O)c3ccccc3o2)c1N	0.839
CN1C(=O)C(Cc2c[nH]c3ccccc23)NC1=S (stereo unspecified) [Necrostatin-1]	0.985
O=C(/C=C/c1ccccc1)NC(NC(=S)Nc1ccc(Cl)cc1)C(Cl)(Cl)Cl (stereo unspecified)	0.868
N[C@@H](Cc1cc(I)c(Oc2cc(I)c(O)c(I)c2)c(I)c1)C(=O)O [Thyroxine, Levothyroxine]	1.2
Oc1nc2ccccc2n1CCCN1CCC(n2c(O)nc3cc(Cl)ccc32)CC1 [Domperidone]	0.958
CCN1CCC[C@H]1CNC(=O)c1cc(S(N)(=O)=O)ccc1OC [Levosulpiride]	0.964
NC(=O)N1c2ccccc2C=Cc2ccccc21 [Carbamazepine]	1.04
CC(=O)[C@H]1CC[C@H]2[C@@H]3CCC4=CC(=O)CC[C@]4(C)[C@H]3CC[C@]12C [Progesterone]	0.82
Nc1cccc(-c2cc3c(Oc4cccc(O)c4)ncnc3[nH]2)c1	0.952
CC[C@H](NC(=O)[C@H](C)NC)C(=O)N1C[C@@H](O)C[C@H]1Cc1c(-c2[nH]c3cc(F)ccc3c2C[C@@H]2C[C@H](O)CN2C(=O)[C@H](CC)NC(=O)[C@H](C)NC)[nH]c2cc(F)ccc12 [Birinapant]	1.24
O=C(NOCC(O)CO)c1cc(Br)c(F)c(F)c1Nc1ccc(I)cc1F (stereo unspecified)	0.818
C[C@@]1(C(=O)Nc2ccc(F)nc2)CCCN1c1nc(Nc2cc(C3CC3)[nH]n2)c2cccn2n1	0.776
Cc1ncc(CO)c(CO)c1O [Pyridoxine]	1.1
Cc1nc2c([nH]1)-c1ccccc1N(C(=O)c1ccc(NC(=O)c3ccccc3-c3ccccc3)cc1)CC2 [Conivaptan]	1.17
C[C@H](O)[C@H](O)[C@@H](O)[C@@H](O)C=O [L-(+)-Rhamnose Monohydrate]	0.964
CC(C)(C#N)c1cc(Cn2cncn2)cc(C(C)(C)C#N)c1 [Anastrozole]	1.06
COc1cccc2c1C(=O)c1c(O)c3c(c(O)c1C2=O)C[C@@](O)(C(=O)CO)C[C@@H]3O[C@H]1C[C@H](N)[C@H](O)[C@H](C)O1 [Doxorubicin]	0.72
Cc1nnc(C(=O)NC(C)(C)c2nc(C(=O)NCc3ccc(F)cc3)c(O)c(=O)n2C)o1 [Raltegravir]	1.08
Cc1ccc(NCCCc2ccccc2)c(N)c1	1.04
CO[C@H]1/C=C/O[C@@]2(C)Oc3c(C)c(O)c4c(O)c(c5c(c4c3C2=O)=NC2(CCN(CC(C)C)CC2)N=5)NC(=O)/C(C)=C\C=C\[C@H](C)[C@H](O)[C@@H](C)[C@@H](O)[C@@H](C)[C@H](OC(C)=O)[C@@H]1C [Rifabutin]	1.07
CN1CC(=O)N2[C@H](c3ccc4c(c3)OCO4)c3[nH]c4ccccc4c3C[C@@H]2C1=O [Tadalafil]	1.02
Cc1cn([C@@H]2C[C@@H](O)[C@H](CO)O2)c(=O)[nH]c1=O [Telbivudine]	1.09
Nc1nnc(-c2cccc(Cl)c2Cl)c(N)n1 [Lamotrigine]	0.993

SMILES	GFP-
CCOc1nc2cccc(C(=O)OC(C)OC(=O)OC3CCCCC3)c2n1Cc1ccc(-c2ccccc2-c2nn[nH]n2)cc1 (stereo unspecified) [Candesartan Cilextil]	0.986
COCCCC/C(=N\OCCN)c1ccc(C(F)(F)F)cc1 [Fluvoxamine]	1
CC(=O)Oc1ccccc1C(=O)O [Acetylsalicylic acid]	0.96
CNS(=O)(=O)CCc1ccc2[nH]cc(C3CCN(C)CC3)c2c1 [Naratriptan]	0.92
Nc1nc(O)c2ncn(COC(CO)CO)c2n1 [Ganciclovir]	1.03
O=S(=O)(c1cccc2cnccc12)N1CCCNCC1 [Fasudil Hydrochloride]	1.01
Cc1cc(O)c2c(c1)C(=O)c1cccc(O)c1C2=O [Chrysophanol]	1.01
CC(=O)Nc1cccc(-n2c(=O)n(C3CC3)c(=O)c3c(Nc4ccc(I)cc4F)n(C)c(=O)c(C)c32)c1 [Trametinib]	0.844
C=C[C@]1(C)C[C@@H](OC(=O)CSC(C)(C)CNC(=O)[C@H](N)C(C)C)[C@]2(C)[C@H](C)CC[C@]3(CCC(=O)[C@H]32)[C@@H](C)[C@@H]1O [Valnemulin HCl]	0.913
c1ccc(-c2ccc(C(c3ccccc3)n3ccnc3)cc2)cc1 (stereo unspecified) [Bifonazole]	1.07
CC[C@H](/C=C/[C@@H](C)[C@@H]1CC[C@H]2[C@@H]3CC=C4C[C@@H](O)CC[C@]4(C)[C@@H]3CC[C@@]21C)C(C)C [Stigmasterol]	0.994
Cc1cn([C@H]2O[C@@H](CO)[C@H](O)[C@H]2F)c(=O)[nH]c1=O [Clevudine]	1.07
O=c1ncn2nc(Sc3ccc(F)cc3F)ccc2c1-c1c(Cl)cccc1Cl	1.13
O=C(O)c1cn(-c2ccc(F)cc2)c2cc(N3CCNCC3)c(F)cc2c1=O [Sarafloxacin]	1.06
CCCCCCCCCCCCCCCC[n+]1ccn(Cc2ccccc2)c1C	0.889
CC1(C)CCC(C)(C)c2cc(NC(=O)c3ccc(C(=O)O)cc3)ccc21 [Tamibarotene]	0.817
CC(=O)NC[C@H]1CN(c2ccc(N3CCOCC3)c(F)c2)C(=O)O1 [Linezolid]	0.998
CN(C)C(=O)Nc1cccc(-c2ccc(N(C)C)cc2)c1 [Atglistatin]	0.934
CC(=O)Nc1ccc(NC(=S)NC(=O)c2ccc(C(C)(C)C)cc2)cc1 [Tenovin-1]	0.758
CCn1cc(C(=O)O)c(=O)c2ccc(C)nc21 [Nalidixic Acid]	0.895
CN1C(C(=O)Nc2ccccn2)=C(O)c2sc(Cl)cc2S1(=O)=O [Lornoxicam]	0.907
CCC(=O)OCC(=O)[C@@]1(OC(=O)CC)[C@@H](C)C[C@H]2[C@@H]3CCC4=CC(=O)C=C[C@]4(C)[C@@]3(Cl)[C@@H](O)C[C@@]21C [Beclomethasone Dipropionate]	1.2
CNC(=O)c1ccccc1Nc1nc(Nc2ccc(N3CCOCC3)cc2OC)ncc1Cl	0.742
N#Cc1ccc2[nH]c(O)c(-c3ccc(CN4CCOCC4)cn3)c2c1	1.1
O=NO [Sodium Nitrite]	0.969
C[N+]1(C)CCC(=C(c2ccccc2)c2ccccc2)CC1 [Diphemanil Methylsulfate]	1.02

SMILES	GFP-
CC1CCc2c(N3CCC(O)CC3)c(F)cc3c(=O)c(C(=O)O)cn1c23 (stereo unspecified) [Nadifloxacin]	1.21
CCCN[C@H]1CCc2nc(N)sc2C1 [Pramipexole]	0.866
CC(C)(C)C(=O)OCOP(=O)(COCCn1cnc2c(N)ncnc21)OCOC(=O)C(C)(C)C [Adefovir Dipivoxil]	0.842
CCCNC(C)C(=O)Nc1ccccc1C (stereo unspecified) [Prilocaine]	1.01
C[C@]12CC[C@@H]3c4ccc(O)cc4CC[C@H]3[C@@H]1CCC2=O [Estrone]	1.05
CC1(C)[C@H](C(=O)O)N2C(=O)C[C@H]2S1(=O)=O [Sulbactam]	0.946 and 1.05
CC(C)[C@H](N)C(=O)OCCOCn1cnc2c(O)nc(N)nc21 [Valaciclovir]	1
Cc1c(-c2ccccc2)oc2c(C(=O)OCCN3CCCCC3)cccc2c1=O [Flavoxate]	1.1
Cn1cc(/C=C/C(=O)c2cccc(F)c2)cc1/C=C/C(=O)NO	0.865 ± 0.015
CCC[C@@H]1C[C@@H](C(=O)N[C@@H]([C@H]2O[C@H](SC)[C@H](O)[C@@H](O)[C@@H]2O)[C@@H](C)O)N(C)C1 [Lincomycin HCl]	1.03
Nc1ncn([C@@H]2O[C@H](CO)[C@@H](O)[C@H]2O)c(=O)n1 [5-azacytidine, Azacitidine]	0.758 ± 0.04
C[C@@]12C[C@@]3(O)O[C@@H](O1)[C@]1(COC(=O)c4ccccc4)[C@H]3C[C@@]12O[C@@H]1O[C@H](CO)[C@@H](O)[C@H](O)[C@H]1O [Paeoniflorin]	0.962
CC1COC2(CCN(c3nc(=O)c4cc(C(F)(F)F)cc([N+](=O)[O-])c4s3)CC2)O1 (racemic) [BTZ043 Racemate]	1.26
Cc1c(OCC(F)(F)F)ccnc1C[S@@](=O)c1nc2ccccc2[nH]1 [Dexlansoprazole]	0.956
N=C(N)N/N=C/c1c(Cl)cccc1Cl [Guanabenz]	1.08
[O]=[Mg] [Magnesium oxide]	1.06
CCCCC[C@H](O)/C=C/[C@H]1[C@H](O)CC(=O)[C@@H]1CCCCCCC(=O)O [Alprostadil]	1.05
CC(C)NCC(O)COc1ccc(COCCOC(C)C)cc1 (stereo unspecified) [Bisoprolol]	1.09
O=C(c1ccc(F)cc1)N1CCC[C@H](c2nc(-c3ccc(F)cc3)no2)C1	1.2
O=C(O)CCCN1CCC(O[C@@H](c2ccc(Cl)cc2)c2ccccn2)CC1 [Bepotastine Besilate]	0.878
Cn1cc(-c2ccc3ncc(Cc4ccc5ncccc5c4)n3n2)cn1	1.01
Cc1noc(-c2ccc(CSCCC(=O)O)cc2)c1NC(=O)OC(C)c1ccccc1Cl (stereo unspecified)	0.83
NC(=O)c1cccc(-c2cc(Nc3ccc(OC(F)(F)F)cc3)ncn2)c1	1.21
Nc1nc(N)nc(-c2cc(Cl)ccc2Cl)n1 [Irsogladine Maleate]	1.15
